The values that follow come from PubChem BioAssay AID248 (DTP/NCI, 2004).

The list is a part of this screen's results and no random one: it gathers tests that were run many times, whatever their T/C, doses with no T/C, and many T/C values between a quarter and a half above the control. Other doses and runs of a compound stand elsewhere. T/C gives the treated animals as a percentage of the vehicle group. Some entries give survivors of the animals treated and no T/C: the source files T/C as zero there, which appears to mark a toxic dose or a test without result, not a measured value. Some survivor counts are full or nearly so, which does not show that the dose was tolerated: survival well below the control is almost never listed, so the zero probably covers shortened survival too. Counts of survivors are from the toxicity check (mostly the fifth day) where no day follows; animals may have died later. Schedules are NCI's codes, taken here to give the interval after Q, in days (D) or hours (H), and the number of doses after X. Some schedules carry Z or #; the key to these is not given. Signs of the kind (2×) give the number of equal values in this list. Where survival is the endpoint, the PubChem record calls one and a half times the control and up active, and a quarter to a half above the control has no call in these data; cut-offs in other NCI protocols can differ. Some T/C values are followed by the survivors on the day toxicity was checked, most often the fifth; where none is given, no animal had died by that day.

The test has as its system L1210 leukemia ip in BDF1 mice, survival T/C. Briefly: NCI In Vivo Anticancer Drug Screen. Data for tumor model L1210 Leukemia (intraperitoneal) in B6D2F1 (BDF1) mice. The conditions noted are these: higher T/C = longer survival.
Where [1] appears, read: T/C endpoint: mean survival time, dose: 300.0 mg/kg/injection, schedule: Q01DX001 (ip), vehicle: saline.
The mark [2] stands for this setting: T/C endpoint: mean survival time, dose: 400.0 mg/kg/injection, schedule: Q01DX009 (ip), vehicle: saline with Tween-80.
Where [3] appears, read: T/C endpoint: mean survival time, dose: 400.0 mg/kg/injection, schedule: Q04DX003 (ip), vehicle: saline with Tween-80.
Setting [4] is: T/C endpoint: mean survival time, dose: 150.0 mg/kg/injection, schedule: Q01DX009 (ip), vehicle: saline.
Setting [5] is: T/C endpoint: mean survival time, dose: 400.0 mg/kg/injection, schedule: Q04DX003 (ip), vehicle: Klucel (hydroxypropylcellulose) (HPC).
[6] abbreviates: T/C endpoint: mean survival time, dose: 100.0 mg/kg/injection, schedule: Q04DX003 (ip), vehicle: saline with Tween-80.
[7] abbreviates: T/C endpoint: mean survival time, dose: 100.0 mg/kg/injection, schedule: Q01DX009 (ip), vehicle: Klucel (hydroxypropylcellulose) (HPC).
[8] abbreviates: T/C endpoint: mean survival time, dose: 200.0 mg/kg/injection, schedule: Q01DX009 (ip), vehicle: Klucel (hydroxypropylcellulose) (HPC).
Where [9] appears, read: T/C endpoint: mean survival time, dose: 400.0 mg/kg/injection, schedule: Q01DX009 (ip), vehicle: Klucel (hydroxypropylcellulose) (HPC).

As to `CC(CCC(=O)O)(NC(=O)c1ccc(NCc2ccc3nc(N)nc(N)c3c2)cc1)C(=O)O` (stereo unspecified), the T/C runs as follows: (T/C endpoint: mean survival time, dose: 2.0 mg/kg/injection, schedule: Q04DX003 (ip), vehicle: saline) 126 % of control [5 of 6 alive]; (T/C endpoint: mean survival time, dose: 4.0 mg/kg/injection, schedule: Q04DX003 (ip), vehicle: saline) 125 % of control; (T/C endpoint: mean survival time, dose: 32.0 mg/kg/injection, schedule: Q04DX003 (ip), vehicle: saline) 125 % of control. The survivor count is on record as 5 of 6 (T/C endpoint: mean survival time, dose: 4.0 mg/kg/injection, schedule: Q01DX009 (ip), vehicle: saline) and 3 of 6 (T/C endpoint: mean survival time, dose: 8.0 mg/kg/injection, schedule: Q01DX009 (ip), vehicle: saline).
`CCOC(=O)Nc1cc(NC(C)CCCN(CC)CC)nc2nc(-c3ccc(Cl)cc3)cnc12` (stereo unspecified): the survivor count is recorded as 4 of 6 (T/C endpoint: mean survival time, dose: 150.0 mg/kg/injection, schedule: Q01DX001 (ip), vehicle: saline) and 0 of 6 under setting [1].
Turning to `CCc1c[n+](CC(=O)c2ccc([N+](=O)[O-])cc2)ccc1C`, the survivor count runs as follows: (T/C endpoint: mean survival time, dose: 100.0 mg/kg/injection, schedule: Q01DX009 (ip), vehicle: saline with Tween-80) 2 of 6; (T/C endpoint: mean survival time, dose: 200.0 mg/kg/injection, schedule: Q01DX009 (ip), vehicle: saline with Tween-80) 0 of 6; under setting [2], 0 of 6.
For `CN(C)C(=S)SCC(=O)[O][Sn]([c]1ccccc1)([c]1ccccc1)[c]1ccccc1`, the survivor count by setting is: (T/C endpoint: mean survival time, dose: 100.0 mg/kg/injection, schedule: Q04DX002 (ip), vehicle: saline with Tween-80) 0 of 3; (T/C endpoint: mean survival time, dose: 200.0 mg/kg/injection, schedule: Q04DX002 (ip), vehicle: saline with Tween-80) 0 of 3; (T/C endpoint: mean survival time, dose: 400.0 mg/kg/injection, schedule: Q04DX002 (ip), vehicle: saline with Tween-80) 0 of 3.
As to `Cc1c[n+]([O-])cc(C)c1N=Nc1ccc(N(C)C)cc1`, under setting [3], the survivor count is recorded as 4 of 6.
With `Nc1nc(N)c2cc(S(=O)(=O)c3ccccc3)ccc2n1`, the T/C runs as follows: (T/C endpoint: median survival time, dose: 50.0 mg/kg/injection, schedule: Q01DX009 (ip), vehicle: saline with Tween-80) 130 % of control; (T/C endpoint: median survival time, dose: 100.0 mg/kg/injection, schedule: Q01DX009 (ip), vehicle: saline with Tween-80) 140 % of control; (T/C endpoint: median survival time, dose: 200.0 mg/kg/injection, schedule: Q01DX009 (ip), vehicle: saline with Tween-80) 139 % of control.
`CC(C)=CCNc1ncnc2c1ncn2C1OC(CO)C(O)C1O` (stereo unspecified): the T/C runs as follows: (T/C endpoint: mean survival time, dose: 30.0 mg/kg/injection, schedule: Q01DX009 (ip), vehicle: saline) 132 % of control; (T/C endpoint: mean survival time, dose: 80.0 mg/kg/injection, schedule: Q01DX009 (ip), vehicle: saline) 132 % of control; (T/C endpoint: mean survival time, dose: 120.0 mg/kg/injection, schedule: Q01DX009 (ip), vehicle: saline) 139 % of control; under setting [4], 128 % of control [5 of 6 alive]; (T/C endpoint: mean survival time, dose: 180.0 mg/kg/injection, schedule: Q01DX009 (ip), vehicle: saline) 125 % of control. Also, the survivor count is, setting by setting: (T/C endpoint: mean survival time, dose: 100.0 mg/kg/injection, schedule: Q01DX015 (ip), vehicle: saline) 3 of 6; (T/C endpoint: mean survival time, dose: 200.0 mg/kg/injection, schedule: Q01DX009 (ip), vehicle: saline) 1 of 6; (T/C endpoint: mean survival time, dose: 200.0 mg/kg/injection, schedule: Q01DX015 (ip), vehicle: saline) 0 of 6; (T/C endpoint: mean survival time, dose: 400.0 mg/kg/injection, schedule: Q01DX001 (ip), vehicle: saline) 2 of 4; under setting [5], 3 of 6; under setting [3], 0 of 6.
For `CN(C(=O)/C=C/C(=O)O)c1ccccc1`, for the setting “T/C endpoint: mean survival time, dose: 400.0 mg/kg/injection, schedule: Q01DX009 (ip), vehicle: saline”, the survivor count is 4 of 6.
Take `CCC(O)C[As](=O)(O)c1ccccc1OC` (stereo unspecified): the survivor count is, setting by setting: (T/C endpoint: mean survival time, dose: 25.0 mg/kg/injection, schedule: Q04DX003 (ip), vehicle: saline with Tween-80) 5 of 6; (T/C endpoint: mean survival time, dose: 50.0 mg/kg/injection, schedule: Q04DX003 (ip), vehicle: saline with Tween-80) 1 of 6; under setting [6], 0 of 6 (2×); (T/C endpoint: mean survival time, dose: 200.0 mg/kg/injection, schedule: Q04DX003 (ip), vehicle: saline with Tween-80) 0 of 6; under setting [3], 0 of 6.
As to `CCCC(=O)Nc1ccc(O)cc1`, the T/C (T/C endpoint: mean survival time, dose: 600.0 mg/kg/injection, schedule: Q01DX009 (ip), vehicle: saline with Tween-80) was 130 % of control [5 of 6 alive].
Regarding `O=C1NCC(Nc2ccccc2Cl)C(=O)N1` (stereo unspecified), for the setting “T/C endpoint: mean survival time, dose: 200.0 mg/kg/injection, schedule: Q01DX Z (ip), vehicle: saline”, the survivor count is listed as 6 of 6.
Turning to `CCN(CCCCOC(=O)c1ccc(OC)c(OC)c1)C(C)Cc1ccc(OC)cc1` (stereo unspecified), the survivor count is, setting by setting: under setting [4], 1 of 6; (T/C endpoint: mean survival time, dose: 300.0 mg/kg/injection, schedule: Q04DX003 (ip), vehicle: saline) 0 of 4.
With `O=C(N/N=C/NN/C=N/NC(=O)c1ccncc1)c1ccncc1`, the survivor count under setting [1] was 1 of 6.
For the molecule `Cn1cc(C(O)CN2CCCCC2)c2ccccc21` (stereo unspecified), the survivor count under setting [6] was 1 of 3.
As for `CCC1(C)C(=O)N(C)C(=O)N1Br` (stereo unspecified), the survivor count is on record as 1 of 6 under setting [7]; 3 of 6 (T/C endpoint: mean survival time, dose: 200.0 mg/kg/injection, schedule: Q04DX003 (ip), vehicle: Klucel (hydroxypropylcellulose) (HPC)); 3 of 6 under setting [5].
In the case of `C/C=C/CC1(CCCC)C(=O)NC(=O)NC1=O`, the survivor count under setting [1] is on record as 3 of 6.
For `CC(C)NNC(=O)c1ccc(Cl)cc1`, the survivor count was 5 of 6 under setting [8] and 3 of 6 under setting [9].
As to `O=C(O)c1ccc(NCc2cccc([N+](=O)[O-])c2)cc1`, the survivor count under setting [7] is reported as 3 of 3.
Turning to `Brc1ccc2c(c1)CCC2`, the survivor count (T/C endpoint: mean survival time, dose: 50.0 mg/kg/injection, schedule: Q01DX001 (ip), vehicle: saline) was 2 of 4.
With `C1=CCC2OC2C1` (stereo unspecified), the survivor count under setting [9] was 0 of 6.
On to `C[N+]1=C2CCCCC2=C(N)CC1`, for which the survivor count reads like this: (T/C endpoint: mean survival time, dose: 100.0 mg/kg/injection, schedule: Q04DX003 (ip), vehicle: saline) 0 of 6; (T/C endpoint: mean survival time, dose: 200.0 mg/kg/injection, schedule: Q04DX003 (ip), vehicle: saline) 0 of 6; (T/C endpoint: mean survival time, dose: 400.0 mg/kg/injection, schedule: Q04DX003 (ip), vehicle: saline) 0 of 6.
Regarding `CCOC(=O)CNc1ccc(F)c(C(F)(F)F)c1`, where the note is “T/C endpoint: mean survival time, dose: 400.0 mg/kg/injection, schedule: Q04DX002 (ip), vehicle: saline”, the T/C is 133 % of control.
On to `COCCCNS(=O)(=O)c1ncnc2nc[nH]c12`, for which the T/C (T/C endpoint: mean survival time, dose: 200.0 mg/kg/injection, schedule: Q01DX Z (ip), vehicle: carboxymethylcellulose (CMC)) is 127 % of control and the T/C (T/C endpoint: mean survival time, dose: 300.0 mg/kg/injection, schedule: Q01DX Z (ip), vehicle: carboxymethylcellulose (CMC)) is 142 % of control. Further, the survivor count runs as follows: (T/C endpoint: mean survival time, dose: 250.0 mg/kg/injection, schedule: Q01DX Z (ip), vehicle: carboxymethylcellulose (CMC)) 0 of 6; (T/C endpoint: mean survival time, dose: 450.0 mg/kg/injection, schedule: Q01DX Z (ip), vehicle: carboxymethylcellulose (CMC)) 2 of 6; (T/C endpoint: mean survival time, dose: 500.0 mg/kg/injection, schedule: Q01DX Z (ip), vehicle: carboxymethylcellulose (CMC)) 0 of 6; (T/C endpoint: mean survival time, dose: 1000.0 mg/kg/injection, schedule: Q01DX Z (ip), vehicle: carboxymethylcellulose (CMC)) 0 of 6.
On to `O/N=C\c1ccccc1Cl`, for which the survivor count under setting [2] is 3 of 6.
For the molecule `COC(=O)C1C2c3ccccc3C(C1C(=O)OC)[n+]1ccccc12` (stereo unspecified), the survivor count under setting [5] was 3 of 6.
For `COC(=O)/C=C/N1C(=O)c2ccccc2C1=O`, the survivor count runs as follows: under setting [7], 6 of 6; under setting [8], 6 of 6; under setting [9], 6 of 6.
Turning to `O=C(NOCc1cc2c(cc1Cl)OCO2)c1ccc(S(=O)(=O)F)cc1`, the survivor count (T/C endpoint: mean survival time, dose: 200.0 mg/kg/injection, schedule: Q04DX003 (ip), vehicle: saline sonified) is reported as 6 of 6 and the survivor count (T/C endpoint: mean survival time, dose: 400.0 mg/kg/injection, schedule: Q04DX003 (ip), vehicle: saline sonified) is on record as 6 of 6.
